Reference: patent US20190374627A1, “TARGET PEPTIDES FOR CANCER THERAPY AND DIAGNOSTICS” (priority 2016, published 2019)

Each substance was assayed on HCC tumor tissue, adjacent liver tissue, HepG2 cells (assay: Identification of MHC class I-bound phosphopeptides by W6/32 immunoprecipitation, IMAC and HPLC-ESI-MS/MS). Conditions: other malignancies on which the MHC-I-pP was also identified.
Set-up: species or system human

| Substance | Found on other cancers |
| --- | --- |
| VMIGsPKKV: TNS3 phosphopeptide, HLA-A*0201 (VMIGSPKKV; phosphoserine; (5)...(5) The amino acid at this position is optionally phosphorylated; listed as Homo sapiens) | Ovarian Ca, |
| yLQSRYYRA: HIPK3 phosphopeptide, HLA-A*0201 (YLQSRYYRA; phosphotyrosine; (1)...(1) The amino acid at this position is optionally phosphorylated; listed as Homo sapiens) | Ovarian Ca |

Same assay, conditions: presentation of HCC-associated HLA-A*0201-restricted MHC-I-pP per cell

| Substance | Copies/cell |
| --- | --- |
| VMIGsPKKV: TNS3 phosphopeptide, HLA-A*0201 (VMIGSPKKV; phosphoserine; (5)...(5) The amino acid at this position is optionally phosphorylated; listed as Homo sapiens) | 2-3 Copies/cell |
| yLQSRYYRA: HIPK3 phosphopeptide, HLA-A*0201 (YLQSRYYRA; phosphotyrosine; (1)...(1) The amino acid at this position is optionally phosphorylated; listed as Homo sapiens) | 0.2 - 1.9 Copies/cell |

Same assay, conditions: sample (HCC tumor T, adjacent liver N, HepG2) on which the phosphopeptide was identified

| Substance | Found on |
| --- | --- |
| SRFNRRVsV (SRFNRRVSV; phosphoserine; (8)...(8) The amino acid at this position is optionally phosphorylated; listed as Homo sapiens) | LL981T |
| TPRsPPLGLI: MAP3K11 phosphopeptide, HLA-B*0702 (TPRSPPLGLI; phosphoserine; (4)...(4) The amino acid at this position is optionally phosphorylated; listed as Homo sapiens) | LL4857T |
| TRKtPESFL: EPN1 phosphopeptide, HLA-C*06 (TRKTPESFL; phosphothreonine; (4)...(4) The amino acid at this position is optionally phosphorylated; listed as Homo sapiens) | LL981T |
| VLLsPVPEL: ANAPC1 phosphopeptide, HLA-A*0201 (VLLSPVPEL; phosphoserine; (4)...(4) The amino acid at this position is optionally phosphorylated; listed as Homo sapiens) | HepG2 |
| YPLsPTKISQY: HIPK1 phosphopeptide, HLA-A*01 (YPLSPTKISQY; phosphoserine; (4)...(4) The amino acid at this position is optionally phosphorylated; listed as Homo sapiens) | HepG2 |
| yLQSRYYRA: HIPK3 phosphopeptide, HLA-A*0201 (YLQSRYYRA; phosphotyrosine; (1)...(1) The amino acid at this position is optionally phosphorylated; listed as Homo sapiens) | LL3907T; also recorded: LL4857T; also recorded: LL981T |

The substances below were run on ovarian cancer (assay: Presence of the phosphopeptide in previously analyzed ovarian cancer samples). Conditions: not given.
Set-up: key: The presence of phosphopeptides in previously analyzed samples including leukemia, colorectal cancer, melanoma, ovarian cancer, breast cancer, and esophageal cancer is indicated by ✓

| Substance | Ovarian |
| --- | --- |
| 1 (AIMRSPQMV; (5)...(5) The amino acid at this position is optionally phosphorylated; listed as Homo sapiens) [compound 1] | ✓ |
| 3 (ALGNTPPFL; (5)...(5) The amino acid at this position is optionally phosphorylated; listed as Homo sapiens) [compound 3] | ✓ |
| 4 (ALMGSPQLV; (5)...(5) The amino acid at this position is optionally phosphorylated; listed as Homo sapiens) [compound 4] | ✓ |
| 5 (ALMGSPQLVAA; (5)...(5) The amino acid at this position is optionally phosphorylated; listed as Homo sapiens) [compound 5] | ✓ |
| 8 (ELFSSPPAV; (5)...(5) The amino acid at this position is optionally phosphorylated; listed as Homo sapiens) [compound 8] | ✓ |
| 12 (GLISPVWGA; (4)...(4) The amino acid at this position is optionally phosphorylated; listed as Homo sapiens) [compound 12] | ✓ |
| 13 (GLLDSPTSI; (5)...(5) The amino acid at this position is optionally phosphorylated; listed as Homo sapiens) [compound 13] | ✓ |
| 17 (KIASEIAQL; (4)...(4) The amino acid at this position is optionally phosphorylated; listed as Homo sapiens) [compound 17] | ✓ |
| 18 (KIGSIIFQV; (4)...(4) The amino acid at this position is optionally phosphorylated; listed as Homo sapiens) [compound 18] | ✓ |
| 20 (KLDSPRVTV; (4)...(4) The amino acid at this position is optionally phosphorylated; listed as Homo sapiens) [compound 20] | ✓ |
| 24 (KLMSDVEDV; (4)...(4) The amino acid at this position is optionally phosphorylated; listed as Homo sapiens) [compound 24] | ✓ |
| 26 (KQDSLVINL; (4)...(4) The amino acid at this position is optionally phosphorylated; listed as Homo sapiens) [compound 26] | ✓ |
| 28 (KVASLLHQV; (4)...(4) The amino acid at this position is optionally phosphorylated; listed as Homo sapiens) [compound 28] | ✓ |
| 30 (RASSLSITV; (4)...(4) The amino acid at this position is optionally phosphorylated; listed as Homo sapiens) [compound 30] | ✓ |
| 31 (RLASASRAL; (4)...(4) The amino acid at this position is optionally phosphorylated; listed as Homo sapiens) [compound 31] | ✓ |
| 32 (RLASLQSEV; (4)...(4) The amino acid at this position is optionally phosphorylated; listed as Homo sapiens) [compound 32] | ✓ |
| 33 (RLASYLDKV; (4)...(4) The amino acid at this position is optionally phosphorylated; listed as Homo sapiens) [compound 33] | ✓ |
| 40 (RLLSDLEEL; (4)...(4) The amino acid at this position is optionally phosphorylated; listed as Homo sapiens) [compound 40] | ✓ |
| 41 (RLLSTDAEAV; (4)...(4) The amino acid at this position is optionally phosphorylated; listed as Homo sapiens) [compound 41] | ✓ |

| Substance | Ovarian |
| --- | --- |
| 42 (RLSDTPPLL; (5)...(5) The amino acid at this position is optionally phosphorylated; listed as Homo sapiens) [compound 42] | ✓ |
| 44 (RMYSFDDVL; (4)...(4) The amino acid at this position is optionally phosphorylated; listed as Homo sapiens) [compound 44] | ✓ |
| 47 (RQASLSISV; (4)...(4) The amino acid at this position is optionally phosphorylated; listed as Homo sapiens) [compound 47] | ✓ |
| 50 (RQLSALHRA; (4)...(4) The amino acid at this position is optionally phosphorylated; listed as Homo sapiens) [compound 50] | ✓ |
| 52 (RSLSESYEL; (4)...(4) The amino acid at this position is optionally phosphorylated; listed as Homo sapiens) [compound 52] | ✓ |
| 53 (RSLSQELVGV; (4)...(4) The amino acid at this position is optionally phosphorylated; listed as Homo sapiens) [compound 53] | ✓ |
| 56 (RTYSGPMNKV; (4)...(4) The amino acid at this position is optionally phosphorylated; listed as Homo sapiens) [compound 56] | ✓ |
| 58 (SIMSPEIQL; (4)...(4) The amino acid at this position is optionally phosphorylated; listed as Homo sapiens) [compound 58] | ✓ |
| 60 (SISSTPPAV; (5)...(5) The amino acid at this position is optionally phosphorylated; listed as Homo sapiens) [compound 60] | ✓ |
| 61 (SLFGGSVKL; (6)...(6) The amino acid at this position is optionally phosphorylated; listed as Homo sapiens) [compound 61] | ✓ |
| 62 (SLFSGDEENA; (4)...(4) The amino acid at this position is optionally phosphorylated; listed as Homo sapiens) [compound 62] | ✓ |
| 63 (SLFSPQNTL; (4)...(4) The amino acid at this position is optionally phosphorylated; listed as Homo sapiens) [compound 63] | ✓ |
| 64 (SLFSSEESNL; (4)...(4) The amino acid at this position is optionally phosphorylated; listed as Homo sapiens) [compound 64] | ✓ |
| 66 (SLHDIQLSL; (8)...(8) The amino acid at this position is optionally phosphorylated; listed as Homo sapiens) [compound 66] | ✓ |
| 68 (SLQSLETSV; (4)...(4) The amino acid at this position is optionally phosphorylated; listed as Homo sapiens) [compound 68] | ✓ |
| 69 (SMSSLSREV; (4)...(4) The amino acid at this position is optionally phosphorylated; listed as Homo sapiens) [compound 69] | ✓ |
| 72 (TVFSPTLPAA; (4)...(4) The amino acid at this position is optionally phosphorylated; listed as Homo sapiens) [compound 72] | ✓ |
| 73 (VLFSSPPQM; (5)...(5) The amino acid at this position is optionally phosphorylated; listed as Homo sapiens) [compound 73] | ✓ |

“Also recorded” adds a separate entry of the source.
